In experiment [1] the target is Metastasis-associated protein 1 (MTA1), endogenous (human (endogenous in HCT116)) (UniProt Q13330). The experiment in a line: co-IP; cell lysate (cells not stated); 1-2 ug primary antibody overnight at 4°C, protein A/G PLUS-agarose, washed with NP-40 buffer (150 mM NaCl, pH 8.0); Western blot.
In experiment [2] the target is MTA1-flag (metastasis-associated protein 1, flag-tagged) (UniProt Q13330). The experiment in a line: co-IP; nuclear and cytoplasmic fractions of HCT116-M1 and HCT116-M3 cells; 1 mg lysate with 1-2 ug primary antibody overnight at 4°C, protein A/G PLUS-agarose 2 h at 4°C, washed with NP-40 buffer (50 mM Tris-HCl pH 8.0, 0.5% NP-40, 150 mM NaCl); Western blot.
The target of experiment [3] is Metastasis-associated protein 1 (MTA1), endogenous (human (endogenous in HCT116)) (UniProt Q13330). The experiment in a line: proximity ligation; in situ PLA (Duolink) in fixed HCT116 cells; mouse anti-MTA1 and rabbit anti-HDAC2; control with rabbit IgG.

Amino acid sequences for entries named in this document (tags omitted).
UniProt Q13330: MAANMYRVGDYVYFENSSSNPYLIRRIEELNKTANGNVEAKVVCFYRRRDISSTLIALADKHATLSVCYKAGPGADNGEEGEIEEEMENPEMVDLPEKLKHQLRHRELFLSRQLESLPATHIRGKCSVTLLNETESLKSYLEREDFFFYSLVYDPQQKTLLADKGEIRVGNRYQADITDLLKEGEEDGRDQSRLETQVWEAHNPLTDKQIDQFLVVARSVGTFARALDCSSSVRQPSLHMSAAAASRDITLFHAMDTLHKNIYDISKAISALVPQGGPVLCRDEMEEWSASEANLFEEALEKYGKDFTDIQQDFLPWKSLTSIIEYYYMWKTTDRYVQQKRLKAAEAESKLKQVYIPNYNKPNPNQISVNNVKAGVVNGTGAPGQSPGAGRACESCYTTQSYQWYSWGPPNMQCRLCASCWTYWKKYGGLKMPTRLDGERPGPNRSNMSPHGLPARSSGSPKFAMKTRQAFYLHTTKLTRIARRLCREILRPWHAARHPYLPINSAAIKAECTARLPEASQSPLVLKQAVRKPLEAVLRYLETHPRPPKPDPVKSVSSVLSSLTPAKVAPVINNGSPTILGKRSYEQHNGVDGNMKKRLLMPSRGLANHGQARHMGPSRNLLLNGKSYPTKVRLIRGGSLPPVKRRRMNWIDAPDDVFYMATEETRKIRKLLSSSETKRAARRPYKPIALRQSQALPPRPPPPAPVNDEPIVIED
UniProt P12270: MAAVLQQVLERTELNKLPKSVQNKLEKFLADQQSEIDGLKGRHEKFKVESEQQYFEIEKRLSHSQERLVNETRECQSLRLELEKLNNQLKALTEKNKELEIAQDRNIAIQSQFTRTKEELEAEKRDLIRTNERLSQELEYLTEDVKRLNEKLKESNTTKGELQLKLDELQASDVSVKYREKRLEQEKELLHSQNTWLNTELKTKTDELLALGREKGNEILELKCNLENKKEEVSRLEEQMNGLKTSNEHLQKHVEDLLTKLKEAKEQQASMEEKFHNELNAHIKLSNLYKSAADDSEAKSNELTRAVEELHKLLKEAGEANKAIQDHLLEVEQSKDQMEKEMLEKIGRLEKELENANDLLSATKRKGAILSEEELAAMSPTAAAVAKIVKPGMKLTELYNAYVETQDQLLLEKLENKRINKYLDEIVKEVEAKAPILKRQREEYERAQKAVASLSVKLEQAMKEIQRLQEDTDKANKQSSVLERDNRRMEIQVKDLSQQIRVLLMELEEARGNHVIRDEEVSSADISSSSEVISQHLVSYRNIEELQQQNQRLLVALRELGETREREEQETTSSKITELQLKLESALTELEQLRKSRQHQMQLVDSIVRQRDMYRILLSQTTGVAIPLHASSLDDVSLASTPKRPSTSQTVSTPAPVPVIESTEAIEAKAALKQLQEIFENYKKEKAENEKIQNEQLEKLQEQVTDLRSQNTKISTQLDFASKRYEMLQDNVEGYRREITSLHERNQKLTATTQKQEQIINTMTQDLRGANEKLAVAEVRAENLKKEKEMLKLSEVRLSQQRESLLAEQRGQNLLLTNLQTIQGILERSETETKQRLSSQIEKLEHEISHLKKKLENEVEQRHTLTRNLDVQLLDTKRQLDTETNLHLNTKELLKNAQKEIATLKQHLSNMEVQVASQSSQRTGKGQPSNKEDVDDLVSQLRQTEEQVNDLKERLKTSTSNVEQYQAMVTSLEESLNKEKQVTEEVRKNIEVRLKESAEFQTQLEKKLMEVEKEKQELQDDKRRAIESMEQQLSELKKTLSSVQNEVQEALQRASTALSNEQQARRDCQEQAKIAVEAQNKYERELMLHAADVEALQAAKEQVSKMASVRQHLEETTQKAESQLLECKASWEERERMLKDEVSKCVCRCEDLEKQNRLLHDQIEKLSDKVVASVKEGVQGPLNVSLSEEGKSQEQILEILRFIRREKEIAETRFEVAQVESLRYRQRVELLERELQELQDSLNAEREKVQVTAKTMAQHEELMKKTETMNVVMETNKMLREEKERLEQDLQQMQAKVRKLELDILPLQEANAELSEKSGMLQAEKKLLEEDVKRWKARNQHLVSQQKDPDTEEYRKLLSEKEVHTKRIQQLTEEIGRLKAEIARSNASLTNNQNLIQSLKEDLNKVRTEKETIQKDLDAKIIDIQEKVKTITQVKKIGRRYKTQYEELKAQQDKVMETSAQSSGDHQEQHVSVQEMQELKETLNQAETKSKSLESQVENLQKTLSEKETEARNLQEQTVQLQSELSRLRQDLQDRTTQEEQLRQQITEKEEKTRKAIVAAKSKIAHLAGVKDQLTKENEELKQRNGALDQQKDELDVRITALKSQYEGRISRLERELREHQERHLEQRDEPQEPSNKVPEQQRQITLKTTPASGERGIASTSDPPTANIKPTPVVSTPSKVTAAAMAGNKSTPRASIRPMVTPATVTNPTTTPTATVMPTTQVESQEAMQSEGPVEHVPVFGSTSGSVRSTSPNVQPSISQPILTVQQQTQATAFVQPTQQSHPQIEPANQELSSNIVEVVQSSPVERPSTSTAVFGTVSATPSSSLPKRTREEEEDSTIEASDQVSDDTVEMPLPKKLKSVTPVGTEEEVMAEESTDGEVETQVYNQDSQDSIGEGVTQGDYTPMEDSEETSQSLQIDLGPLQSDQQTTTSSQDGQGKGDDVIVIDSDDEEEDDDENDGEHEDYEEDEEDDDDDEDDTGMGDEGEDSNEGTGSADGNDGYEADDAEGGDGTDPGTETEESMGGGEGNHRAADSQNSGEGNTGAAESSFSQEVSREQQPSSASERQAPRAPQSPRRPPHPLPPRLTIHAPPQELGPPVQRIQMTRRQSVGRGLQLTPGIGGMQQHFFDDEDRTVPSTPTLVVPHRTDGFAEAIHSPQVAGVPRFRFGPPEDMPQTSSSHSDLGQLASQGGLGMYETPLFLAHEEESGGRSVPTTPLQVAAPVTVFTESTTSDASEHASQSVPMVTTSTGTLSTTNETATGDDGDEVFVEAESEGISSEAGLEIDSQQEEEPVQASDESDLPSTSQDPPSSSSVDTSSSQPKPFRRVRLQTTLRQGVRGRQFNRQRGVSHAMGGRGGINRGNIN
UniProt Q92769: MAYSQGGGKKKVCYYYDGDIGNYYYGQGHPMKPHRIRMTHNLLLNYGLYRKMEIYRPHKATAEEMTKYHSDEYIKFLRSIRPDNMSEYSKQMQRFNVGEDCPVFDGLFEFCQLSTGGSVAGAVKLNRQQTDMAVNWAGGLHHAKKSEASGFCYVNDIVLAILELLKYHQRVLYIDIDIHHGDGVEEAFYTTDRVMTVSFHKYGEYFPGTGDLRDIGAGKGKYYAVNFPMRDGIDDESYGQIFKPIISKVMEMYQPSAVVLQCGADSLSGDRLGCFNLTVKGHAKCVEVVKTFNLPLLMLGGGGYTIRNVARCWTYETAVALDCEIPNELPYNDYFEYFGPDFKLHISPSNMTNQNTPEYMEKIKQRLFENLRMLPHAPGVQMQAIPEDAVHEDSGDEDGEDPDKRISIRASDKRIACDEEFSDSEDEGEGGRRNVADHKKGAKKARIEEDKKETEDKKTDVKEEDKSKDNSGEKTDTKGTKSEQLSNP

Results are given in words; binding and its absence hold for the method and conditions named. Binding seen in cells or lysates may run through a third protein. Some entries that bind do so weakly or less than the wild type.

With “nucleoporin TPR (translocated promoter region) (from UniProt P12270 1-2363)”, the binding result in experiment [1] is given as “binds”.

As to “Histone deacetylase 2 (HDAC2) (from UniProt Q92769 1-488)”, the binding entry in experiment [2] and in experiment [3] was “binds” throughout.

The values are drawn from PMC4148129.
